Data from publication PMC3125180.
These are yes or no findings as the source states them, for the method shown. In cells and extracts the contact can be indirect. A yes stands for co-enrichment or nearness to the bait. Other partners may have been found. For some of these results: A no says only that the protein was not detected with the bait. For some of these results: Where a sequence is shown, tags or fusion partners need not be part of it.

The chains behind the UniProt entries cited, without tags or fusion partners. Where a name states a change or a piece, a line headed by the entry shows the natural chain unless it says otherwise.
UniProt Q726B7: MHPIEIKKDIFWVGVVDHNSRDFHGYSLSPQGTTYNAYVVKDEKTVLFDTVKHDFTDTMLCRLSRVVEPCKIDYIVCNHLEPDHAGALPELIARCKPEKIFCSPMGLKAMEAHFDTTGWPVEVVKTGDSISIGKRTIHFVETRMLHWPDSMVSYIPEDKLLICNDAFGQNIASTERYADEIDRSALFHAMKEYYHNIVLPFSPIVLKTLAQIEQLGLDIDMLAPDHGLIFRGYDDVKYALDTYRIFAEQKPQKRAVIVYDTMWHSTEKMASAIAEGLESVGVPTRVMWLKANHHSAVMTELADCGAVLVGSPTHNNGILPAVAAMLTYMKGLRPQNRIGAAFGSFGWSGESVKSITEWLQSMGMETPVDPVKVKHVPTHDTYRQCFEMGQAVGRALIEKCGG
UniProt Q729Q8: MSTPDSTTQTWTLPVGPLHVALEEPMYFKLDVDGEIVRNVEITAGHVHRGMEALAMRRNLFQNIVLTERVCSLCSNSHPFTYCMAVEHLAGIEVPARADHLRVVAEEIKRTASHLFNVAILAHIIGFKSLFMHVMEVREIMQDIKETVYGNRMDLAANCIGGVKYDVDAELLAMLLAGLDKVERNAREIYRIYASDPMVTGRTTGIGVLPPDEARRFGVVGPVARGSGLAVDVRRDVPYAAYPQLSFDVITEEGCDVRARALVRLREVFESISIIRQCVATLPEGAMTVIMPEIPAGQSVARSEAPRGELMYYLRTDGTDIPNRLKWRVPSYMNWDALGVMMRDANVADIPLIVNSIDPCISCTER
UniProt Q72DT2: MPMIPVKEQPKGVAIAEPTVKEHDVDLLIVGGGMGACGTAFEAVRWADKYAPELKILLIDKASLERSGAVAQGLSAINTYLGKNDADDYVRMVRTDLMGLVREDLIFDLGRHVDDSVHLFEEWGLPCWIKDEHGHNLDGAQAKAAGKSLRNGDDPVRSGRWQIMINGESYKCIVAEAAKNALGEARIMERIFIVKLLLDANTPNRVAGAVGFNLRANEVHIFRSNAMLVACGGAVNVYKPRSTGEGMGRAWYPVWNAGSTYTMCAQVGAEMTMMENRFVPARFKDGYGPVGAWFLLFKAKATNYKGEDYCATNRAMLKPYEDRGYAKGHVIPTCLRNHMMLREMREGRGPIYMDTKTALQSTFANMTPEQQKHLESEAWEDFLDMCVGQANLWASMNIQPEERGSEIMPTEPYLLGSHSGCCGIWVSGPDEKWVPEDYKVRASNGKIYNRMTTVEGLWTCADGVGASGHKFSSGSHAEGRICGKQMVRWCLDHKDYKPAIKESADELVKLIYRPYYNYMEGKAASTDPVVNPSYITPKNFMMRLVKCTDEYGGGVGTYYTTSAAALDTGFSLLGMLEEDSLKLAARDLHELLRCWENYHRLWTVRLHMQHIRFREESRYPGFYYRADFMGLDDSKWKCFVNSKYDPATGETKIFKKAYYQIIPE
UniProt Q72DW8: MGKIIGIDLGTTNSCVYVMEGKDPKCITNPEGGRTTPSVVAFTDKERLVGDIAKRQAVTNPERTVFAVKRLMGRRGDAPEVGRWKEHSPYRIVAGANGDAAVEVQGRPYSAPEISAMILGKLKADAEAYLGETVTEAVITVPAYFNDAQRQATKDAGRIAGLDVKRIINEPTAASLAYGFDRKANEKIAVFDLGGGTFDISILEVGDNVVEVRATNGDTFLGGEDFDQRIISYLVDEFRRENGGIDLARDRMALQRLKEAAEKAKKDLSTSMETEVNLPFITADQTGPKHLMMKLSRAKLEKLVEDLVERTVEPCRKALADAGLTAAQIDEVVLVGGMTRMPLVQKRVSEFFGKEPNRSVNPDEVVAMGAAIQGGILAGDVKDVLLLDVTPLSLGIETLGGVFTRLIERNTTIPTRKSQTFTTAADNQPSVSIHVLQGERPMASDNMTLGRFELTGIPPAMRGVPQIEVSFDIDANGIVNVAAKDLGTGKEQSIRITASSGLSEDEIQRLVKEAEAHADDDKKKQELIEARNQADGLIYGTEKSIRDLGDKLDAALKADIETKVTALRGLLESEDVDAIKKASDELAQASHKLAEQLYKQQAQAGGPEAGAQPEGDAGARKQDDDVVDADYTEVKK
UniProt Q72DT3: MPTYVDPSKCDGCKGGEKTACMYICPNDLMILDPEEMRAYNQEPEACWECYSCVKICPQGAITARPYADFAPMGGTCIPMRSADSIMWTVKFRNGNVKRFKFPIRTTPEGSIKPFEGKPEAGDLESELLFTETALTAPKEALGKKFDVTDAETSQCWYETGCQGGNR
UniProt Q729Q9: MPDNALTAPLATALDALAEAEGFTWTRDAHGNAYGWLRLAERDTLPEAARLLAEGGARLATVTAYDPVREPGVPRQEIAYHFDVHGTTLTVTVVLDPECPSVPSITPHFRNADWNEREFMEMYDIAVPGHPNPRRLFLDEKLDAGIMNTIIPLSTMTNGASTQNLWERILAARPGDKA
UniProt Q72DS8: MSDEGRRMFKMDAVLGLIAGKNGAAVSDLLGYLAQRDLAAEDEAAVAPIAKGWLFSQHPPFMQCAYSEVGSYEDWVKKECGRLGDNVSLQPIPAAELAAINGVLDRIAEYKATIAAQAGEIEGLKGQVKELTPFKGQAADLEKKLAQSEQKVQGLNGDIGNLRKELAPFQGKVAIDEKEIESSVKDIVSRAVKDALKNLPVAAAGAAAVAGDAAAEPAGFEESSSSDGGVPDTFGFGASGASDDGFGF
UniProt Q72C29: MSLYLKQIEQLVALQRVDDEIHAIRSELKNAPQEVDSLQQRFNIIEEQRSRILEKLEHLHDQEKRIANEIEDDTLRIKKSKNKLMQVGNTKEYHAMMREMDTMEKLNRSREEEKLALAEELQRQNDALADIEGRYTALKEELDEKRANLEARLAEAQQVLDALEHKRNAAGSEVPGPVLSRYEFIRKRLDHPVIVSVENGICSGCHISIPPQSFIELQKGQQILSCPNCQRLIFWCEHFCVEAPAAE
UniProt Q72A94: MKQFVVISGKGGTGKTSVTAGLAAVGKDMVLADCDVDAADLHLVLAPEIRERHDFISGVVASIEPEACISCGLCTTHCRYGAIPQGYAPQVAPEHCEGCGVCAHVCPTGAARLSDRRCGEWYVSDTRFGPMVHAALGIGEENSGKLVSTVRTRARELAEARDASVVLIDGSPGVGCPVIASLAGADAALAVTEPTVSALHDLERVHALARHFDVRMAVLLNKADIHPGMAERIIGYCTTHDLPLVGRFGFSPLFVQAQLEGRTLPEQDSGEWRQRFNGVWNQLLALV
UniProt Q725U5: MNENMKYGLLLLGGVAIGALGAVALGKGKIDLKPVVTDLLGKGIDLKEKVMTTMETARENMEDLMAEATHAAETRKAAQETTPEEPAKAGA
UniProt Q72AW5: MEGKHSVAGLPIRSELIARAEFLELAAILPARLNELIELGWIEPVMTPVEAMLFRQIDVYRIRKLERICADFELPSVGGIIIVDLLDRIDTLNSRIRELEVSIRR

Columns and labels:
Assay in all cases: affinity purification with mass spectrometry; chromosomally C-terminally Strep-tag II-tagged bait in D. vulgaris JW801 grown anaerobically in LS4D to late log phase; soluble lysate (60~70 mg protein) on a 1-ml Strep-Tactin Sepharose column, gravity flow, 4°C, Buffer W (100 mM Tris-HCl, 150 mM NaCl, 1 mM EDTA, pH 8), eluted with desthiobiotin; tryptic digest, LC-MS/MS; three biological replicates; untagged JW801 as no-bait control
[1] = molecular target: Strep-tagged Rubredoxin-oxygen oxidoreductase, Roo (DVU3185) (Desulfovibrio vulgaris Hildenborough (strain JW801)) (UniProt Q726B7)
[2] = molecular target: Strep-tagged carbon monoxide-induced hydrogenase CooH (DVU2291) (Desulfovibrio vulgaris Hildenborough (strain JW801)) (UniProt Q729Q8)
[3] = molecular target: Strep-tagged ApsA (DVU0847) (Desulfovibrio vulgaris Hildenborough (strain JW801)) (UniProt Q72DT2)
[4] = molecular target: T1, Strep-tagged Rubredoxin, Rub (DVU3184) (Desulfovibrio vulgaris Hildenborough (strain JW801)) (UniProt P00269)
T1 sequence: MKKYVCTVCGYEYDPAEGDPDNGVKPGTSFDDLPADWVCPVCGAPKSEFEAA

[5] = molecular target: T2, Strep-tagged Polyribonucleotide nucleotidyltransferase (Pnp, DVU0503) (Desulfovibrio vulgaris Hildenborough (strain JW801)) (UniProt Q72ER6)
T2 sequence: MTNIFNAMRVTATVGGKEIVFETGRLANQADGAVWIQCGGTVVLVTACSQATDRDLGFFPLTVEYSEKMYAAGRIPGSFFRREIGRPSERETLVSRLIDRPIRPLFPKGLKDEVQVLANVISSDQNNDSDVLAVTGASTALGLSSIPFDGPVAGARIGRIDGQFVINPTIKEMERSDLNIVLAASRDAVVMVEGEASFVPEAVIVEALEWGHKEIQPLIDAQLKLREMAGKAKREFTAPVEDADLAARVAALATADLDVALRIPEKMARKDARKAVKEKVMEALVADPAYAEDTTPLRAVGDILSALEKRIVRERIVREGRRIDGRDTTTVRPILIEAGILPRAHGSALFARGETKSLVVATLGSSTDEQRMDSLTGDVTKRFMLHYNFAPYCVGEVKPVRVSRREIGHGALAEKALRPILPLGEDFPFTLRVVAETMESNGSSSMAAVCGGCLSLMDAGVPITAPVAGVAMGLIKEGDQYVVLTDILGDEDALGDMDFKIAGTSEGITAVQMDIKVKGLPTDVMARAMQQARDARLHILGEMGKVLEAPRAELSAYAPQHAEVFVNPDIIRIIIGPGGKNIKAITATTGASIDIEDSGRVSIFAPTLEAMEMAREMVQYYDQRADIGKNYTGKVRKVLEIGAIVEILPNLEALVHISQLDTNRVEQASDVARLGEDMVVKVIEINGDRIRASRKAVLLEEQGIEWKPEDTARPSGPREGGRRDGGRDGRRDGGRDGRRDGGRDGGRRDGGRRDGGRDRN

[6] = molecular target: Strep-tagged DnaK (DVU0811) (Desulfovibrio vulgaris Hildenborough (strain JW801)) (UniProt Q72DW8)

ApsA (DVU0847) (from UniProt Q72DT2) (enzyme)
binding [1]: binds | binding [2]: binds

ApsB (DVU0846) (from UniProt Q72DT3) (enzyme)
binding [3]: binds | binding [1]: binds | binding [2]: binds

CooU (DVU2290) (from UniProt Q729Q9)
binding [2]: binds

DVU0851 (from UniProt Q72DS8)
binding [4]: binds

DVU1455 (from UniProt Q72C29)
binding [5]: binds

DVU2103 (from UniProt Q72A94)
binding [6]: binds

DVU3330 (from UniProt Q725U5)
binding [6]: binds

DafA (DVU1875) (from UniProt Q72AW5)
binding [6]: binds

RhlE (DVU1982) (enzyme)
binding [5]: no binding

Rne (DVU3055) (enzyme)
binding [5]: no binding
